Among the data in PMC7026407 are binding values, retold here.

By UniProt entry, the sequences of proteins in these tests, tags left out. Residues count along the entry.
UniProt P18065, residues 36-325: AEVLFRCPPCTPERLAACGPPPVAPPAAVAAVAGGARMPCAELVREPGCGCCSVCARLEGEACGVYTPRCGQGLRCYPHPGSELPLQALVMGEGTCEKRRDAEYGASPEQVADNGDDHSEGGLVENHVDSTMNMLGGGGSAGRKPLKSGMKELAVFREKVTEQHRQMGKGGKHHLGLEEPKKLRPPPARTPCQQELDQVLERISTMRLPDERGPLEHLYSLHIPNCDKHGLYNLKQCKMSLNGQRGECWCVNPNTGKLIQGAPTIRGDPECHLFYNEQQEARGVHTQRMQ

These are yes or no findings as the source states them, for the method shown.

Test [1] addresses IGFBP-2 (UniProt P18065). The test can be described thus: SPR; IGF binding protein or Fc fusion amine-coupled to a CM4 chip, growth factor as analyte; Biacore T100/T200; HBS-P, with 0.2 mg/ml BSA or 0.65 M NaCl to reduce non-specific binding; 25 °C; 1:1 binding fit; both purified. (SPR reads the build-up and loss of mass on a sensor chip optically.)
The target of test [2] is IGFBP-2 (UniProt P18065). The test can be described thus: SPR; IGF binding protein or Fc fusion amine-coupled to a CM4 chip, growth factor as analyte; Biacore T100 or T200, HBS-P, BSA (0.2 mg/ml) or NaCl (0.65 M final) to reduce non-specific binding, 25 °C; 1:1 binding analysis; both purified.
In test [3] the target is T1, IGFBP-7 (UniProt Q16270).
T1 sequence: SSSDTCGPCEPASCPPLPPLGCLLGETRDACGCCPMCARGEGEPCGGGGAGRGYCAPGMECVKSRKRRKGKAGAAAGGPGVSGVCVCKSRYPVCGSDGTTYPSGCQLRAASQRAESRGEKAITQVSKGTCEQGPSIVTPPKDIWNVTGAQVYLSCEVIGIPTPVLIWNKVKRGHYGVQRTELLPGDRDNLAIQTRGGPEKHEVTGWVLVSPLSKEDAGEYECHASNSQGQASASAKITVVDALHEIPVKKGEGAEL
The test can be described thus: SPR; IGF binding protein or Fc fusion amine-coupled to a CM4 chip, growth factor as analyte; Biacore T100/T200; HBS-P, with 0.2 mg/ml BSA or 0.65 M NaCl to reduce non-specific binding; 25 °C; 1:1 binding fit; both purified.

For test [4], the target named is T1, IGFBP-7. The test can be described thus: SPR; IGF binding protein or Fc fusion amine-coupled to a CM4 chip, growth factor as analyte; Biacore T100 or T200, HBS-P, BSA (0.2 mg/ml) or NaCl (0.65 M final) to reduce non-specific binding, 25 °C; 1:1 binding analysis; both purified.

As to “PDGF AB (from UniProt P04085 87-211; P01127 82-190) (complex)”, in test [1], the binding entry is reported as “no binding”.

As to “PDGF AB (from UniProt P04085 87-211; P01127 82-190) (ligand)”, the binding result in test [2] is reported as “no binding”. On the same count and under the same terms, to “hepatocyte growth factor (from UniProt P14210 32-728) (ligand)” belongs “no binding”.

Turning to “insulin-like growth factor-1 (from UniProt P05019 49-118) (ligand)”, the binding entry in test [3] and in test [4] was “no binding” in each case. Regarding “insulin-like growth factor-2 (from UniProt P01344 25-91) (ligand)”, the binding entry in test [3] and in test [4] was “no binding” in each case.
